{"source": "PubChem BioAssay AID1347423", "about": "(Functional Genomics Laboratory (NCATS/FGL), 2020)", "note": "Out of some 52,000 sequences screened, about 210 (0.4%) were called active.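 How the source made its calls: active means gene whose silencing raises cell survival under the drug, median off-target-corrected z-score across its silencing RNAs 2 or more; inactive means the rest.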 Some of the results follow.", "data": [{"test": "Resistance to Poly (ADP-Ribose) Polymerase inhibitor: Gene Identification via Genome-wide siRNA Screen", "details": "mouse BRCA2 R2336H ES cells, olaparib, CellTiter-Glo viability; hits give high values", "text": "The role of Poly (ADP-Ribose) Polymerase (PARP) proteins in DNA repair has been elegantly utilized for the synthetic lethality-based treatment of BRCA-deficient tumors by PARP inhibitors. PARP inhibitors are now being used for treatment of BRCA-deficient breast and ovarian cancers. […] While several mechanisms of drug resistance have been identified, majority of these tumors develop drug resistance due to unknown causes. To identified novel regulators of chemo-resistance in BRCA2-mutated cells, we performed a genome wide siRNA library screen. We have found ES cells expressing a hypomorphic allele of BRCA2 to be hypersensitive to PAPP inhibitors (such as olaparib). We used ES cells expressing a mutant allele of BRCA2 that has a single amino acid substitution at position 2336 (arginine to histidine, R2336H). The screen was conducted using an Ambion (Thermo) Silencer Mouse Genome siRNA collection. The library targets 17,575 mouse genes with 3 siRNAs per gene. TET2 (E130014J05Rik) was identified as a top candidate.\nTransfections were performed in 384 well plates (Corning 3707). Plates were coated with 0.1% gelatin in H2O overnight at ambient temperature. Gelatin solution was aspirated (BioTek EL406) and siRNAs were printed using a Bravo VPrep liquid handler integrated within a BioCel automation platform (Agilent). Cell viability was measured using CellTiter Glo (Promega). For transfections, […] of serum free media containing Lipofectamine RNAiMax […] was added to wells containing siRNA (0.8pmol). Lipid and siRNA were allowed to complex for 45 min at ambient temperature before addition of 1000 cells in DMEM, 30% FBS to yield final transfection mixtures containing 20 nM siRNA in DMEM, 15% FBS. PARPi (olaparib, AZD2281) was added 48 h post-transfection (500 nM) and viability (CellTiter Glo, Promega) was assayed 72 h later on a PerkinElmer Envision 2104 Multilabel plate reader. Ambion Silencer Select Negative Control #2 was incorporated on all screening plates (16 wells) and the median negative control value on each plate was used for normalization. An siRNA targeting Trp53 was used as a positive control. This control yielded a median protective effect of ~1.9 fold versus negative control throughout the screen. The median absolute deviation (MAD) based z-score was calculated for each siRNA. Genes were then ranked by taking the median value for all siRNAs tested against a given gene. Scores were also adjusted for seed-based off-target effects to help deprioritize likely false positives.", "values": [{"sequence": "GGCUAUAGUAGGUCUUUCATT against Arhgap1", "z-score": "inactive: -1.99"}, {"sequence": "GGUAAUUAAAACCAUGGAGTT against 2810428I15Rik", "z-score": "inactive: -0.171"}, {"sequence": "GGGCUUAAGGAAUAAACCATT against Phtf2", "z-score": "inactive: -2.02"}, {"sequence": "GGGAUCCCACCUGAAAAAATT against Wdr51a", "z-score": "inactive: -0.624"}, {"sequence": "GGAUUUUGCUGUUUUGGAATT against Dsc1", "z-score": "inactive: 0.892"}, {"sequence": "GGCUAAAAAUAACAUCACCTT against Gabra2", "z-score": "inactive: 0.904"}, {"sequence": "CCAAUAAAAAAUGUCUGCATT against 4732473B16Rik", "z-score": "inactive: -0.0244"}, {"sequence": "GCUUGACAUGUCCUCAGAGTT against BC040823", "z-score": "inactive: -0.158"}, {"sequence": "GCCGCUUCCAUUUUCUAUATT against Hic1", "z-score": "inactive: 1.82"}, {"sequence": "GCUGGUAUCAUGAUUUUGGTT against LOC333669", "z-score": "inactive: 1.74"}, {"sequence": "CGAAAUUGCUGACUCAGAATT against Arl6ip6", "z-score": "inactive: 0.658"}, {"sequence": "CCUAACCAUCGACUUCUUCTT against Wfs1", "z-score": "inactive: 0.19"}, {"sequence": "GGACUUGACUAGACUUUCUTT against Cops7b", "z-score": "inactive: -1.51"}, {"sequence": "GCACGUACUGUUCUAGAAGTT against Kcng4", "z-score": "inactive: -1.17"}, {"sequence": "GGAGCACAGUCUCAUGAAUTT against A130014H13Rik", "z-score": "inactive: 0.604"}, {"sequence": "GGAGUUCGUACCCUUAUCCTT against AW540478", "z-score": "inactive: -0.525"}, {"sequence": "GGUGACGAUACAGAAAGAGTT against Zfp523", "z-score": "inactive: -2.21"}, {"sequence": "GCCAUCUACGUGUCAUAGCTT against Siah1b", "z-score": "inactive: 0.971"}, {"sequence": "GGAAGAACCCAGCAAUGUCTT against Lzts2", "z-score": "inactive: 0.0916"}, {"sequence": "CCCAAUAGUUUCUACUACUTT against Mkks", "z-score": "inactive: -1.31"}, {"sequence": "GCUAUAAAAAGAGCUCCGCTT against Cox8b", "z-score": "inactive: -0.106"}, {"sequence": "GGAAUAAAACUUCUGAGAATT against Oog1", "z-score": "inactive: 0.00685"}, {"sequence": "GGCAAAGUUUAUGAAAUCCTT against Lipg", "z-score": "inactive: 1.33"}, {"sequence": "CCGCUUACAUCGACUUUGCTT against Tpi1", "z-score": "inactive: -0.224"}, {"sequence": "GGUAGCAGUGAUAGACACATT against Zfyve1", "z-score": "inactive: -0.456"}, {"sequence": "GUUCUUUUUCUUCGGUUCCTT against Olfr1020", "z-score": "inactive: -0.0794"}, {"sequence": "GCUACCAAAUUCUUUCAGUTT against Prpf8", "z-score": "inactive: -2.01"}, {"sequence": "GGUAAAUACAGCAGUCCAGTT against 0610009I22Rik", "z-score": "inactive: -2.04"}, {"sequence": "GGCAAUGACGAAAUAACCCTT against Il10rb", "z-score": "inactive: -0.191"}, {"sequence": "CCAUCAAGAGGUAUAAUCUTT against A930017E24Rik", "z-score": "inactive: -2.24"}, {"sequence": "GCACUGACGACAAAAGUUCTT against 1500001L15Rik", "z-score": "inactive: -0.816"}, {"sequence": "GGUGGAGUCAAAGGAACCCTT against C430004E15Rik", "z-score": "inactive: 0.713"}, {"sequence": "GGAGCUAAUCGAGAAAAUGTT against Arl10b", "z-score": "inactive: -0.228"}, {"sequence": "GGGUUAAGGAACUUUAUGUTT against Cnnm4", "z-score": "inactive: -0.606"}, {"sequence": "GCACUCUGUUCAGCUAAAATT against 7530404M11Rik", "z-score": "inactive: 0.947"}, {"sequence": "CCUUAUCCAGUCACUUUGGTT against Gabra5", "z-score": "inactive: 0.564"}, {"sequence": "GGGACAUGAGUUUUAAAAUTT against Dazl", "z-score": "inactive: 0.889"}, {"sequence": "CCCUAAGAAUCCUUGUUCUTT against V1rd16", "z-score": "inactive: 0.503"}, {"sequence": "GAUGAAGAAGAGCAGGCUCTT against MGC118210", "z-score": "inactive: -0.353"}, {"sequence": "CGUACAUCAGAAUGUUAAUTT against Fkbp4", "z-score": "inactive: 0.967"}, {"sequence": "GGAAGUGUAUGAUCUCAUGTT against Tyro3", "z-score": "inactive: 2.47"}, {"sequence": "GGGAAAUGACAAUUGAAAGTT against 4921526G09Rik", "z-score": "inactive: 0.141"}, {"sequence": "GGUGUCCACUUAAUUCUGATT against Mmp19", "z-score": "inactive: 0.391"}, {"sequence": "GGAACUCCACUUUCUUUUUTT against Dscr6", "z-score": "inactive: 1"}, {"sequence": "CCCAUCUCACUAUUUAAUATT against Lrrc3b", "z-score": "inactive: 0.119"}, {"sequence": "GGGUUGCUACAAUCAUUGUTT against Scara3", "z-score": "inactive: 0.0261"}, {"sequence": "GCUACAAAGAGUAAAACUGTT against Zfp251", "z-score": "inactive: 0.235"}, {"sequence": "GCAAUAUGCGGAUUUUACCTT against Mtbp", "z-score": "inactive: 0.245"}, {"sequence": "GGGACCUAAUCAAUUGUUGTT against Fbxo3", "z-score": "inactive: -0.0343"}, {"sequence": "GGACUAUCCAACCUCCUAGTT against Cd47", "z-score": "inactive: 0.488"}, {"sequence": "GGCAUGGAAGGCUAAACAGTT against Slc25a17", "z-score": "inactive: -0.224"}, {"sequence": "GGUUGGAGUUCAACAGAUGTT against Ksr", "z-score": "inactive: -2.14"}]}]}
